Measurements published in US20060062732A1, “Medicine for detecting lipid components in vivo and vascular endoscope” (Yasumi UCHIDA, priority 2004, published 2006).

Experiments:
[1] = test system: Atherosclerotic plaques of human coronary artery; assay: Scanning microscopic observation of dye-evoked fluorescence in removed human coronary plaques; conditions: plaque segments dipped into 10^-5 M dye solution for 5 min
[2] = Dye-evoked fluorescence of lyso PC, fluorescent microscopy; design: key: B: blue.; Br: brown.; G: green.; Go: gold.; O: orange.; P: purple.; R: red.; SB: sky blue.; V: violet.; W: white.; Y: yellow
[3] = Dye-evoked fluorescence of PC, fluorescent microscopy; design: key: B: blue.; Br: brown.; G: green.; Go: gold.; O: orange.; P: purple.; R: red.; SB: sky blue.; V: violet.; W: white.; Y: yellow
[4] = test system: HDL (high density lipoprotein); assay: Dye-evoked fluorescence of HDL, fluorescent microscopy; design: key: B: blue.; Br: brown.; G: green.; Go: gold.; O: orange.; P: purple.; R: red.; SB: sky blue.; V: violet.; W: white.; Y: yellow
[5] = Dye-evoked fluorescence of PC, fluorescent microscopy; design: key: B: blue.; G: green.; O: orange.; W: white.; Y: yellow
[6] = test system: IDL (intermediate density lipoprotein); assay: Dye-evoked fluorescence of IDL, fluorescent microscopy; design: key: B: blue.; G: green.; O: orange.; W: white.; Y: yellow
[7] = Dye-evoked fluorescence of lyso PC, fluorescent microscopy; design: key: B: blue.; G: green.; O: orange.; W: white.; Y: yellow; conditions: exciting 470 nm, emitting 515 nm
[8] = test system: Atherosclerotic plaques of human coronary artery; assay: Dye-evoked fluorescence of human coronary plaques by color fluorescent image angioscopy system; conditions: artery perfused with dye solution for 5 min
[9] = test system: LDL (low density lipoprotein); assay: Dye-evoked fluorescence of LDL, fluorescent microscopy; design: key: B: blue.; Br: brown.; G: green.; Go: gold.; O: orange.; P: purple.; R: red.; SB: sky blue.; V: violet.; W: white.; Y: yellow
[10] = test system: OxLDL (oxidized low density lipoprotein); assay: Dye-evoked fluorescence of oxLDL, fluorescent microscopy; design: key: B: blue.; Br: brown.; G: green.; Go: gold.; O: orange.; P: purple.; R: red.; SB: sky blue.; V: violet.; W: white.; Y: yellow
[11] = test system: VLDL (very low density lipoprotein); assay: Dye-evoked fluorescence of VLDL, fluorescent microscopy; design: key: B: blue.; Br: brown.; G: green.; Go: gold.; O: orange.; P: purple.; R: red.; SB: sky blue.; V: violet.; W: white.; Y: yellow
[12] = test system: OxLDL (oxidized low density lipoprotein); assay: Dye-evoked fluorescence of oxLDL, fluorescent microscopy
[13] = Dye-evoked fluorescence of cholesteryl linolate, fluorescent microscopy; design: key: B: blue.; G: green.; O: orange.; W: white.; Y: yellow
[14] = Dye-evoked fluorescence of calcium phosphate, fluorescent microscopy; design: key: B: blue.; G: green.; O: orange.; W: white.; Y: yellow
[15] = Dye-evoked fluorescence of TG, fluorescent microscopy; design: key: B: blue.; G: green.; O: orange.; W: white.; Y: yellow
[16] = test system: VLDL (very low density lipoprotein); assay: Dye-evoked fluorescence of VLDL, fluorescent microscopy; design: key: B: blue.; G: green.; O: orange.; W: white.; Y: yellow
[17] = test system: OxLDL (oxidized low density lipoprotein); assay: Dye-evoked fluorescence of oxLDL, fluorescent microscopy; design: key: B: blue.; G: green.; O: orange.; W: white.; Y: yellow; conditions: exciting 470 nm, emitting 515 nm
[18] = test system: IDL (intermediate density lipoprotein); assay: Dye-evoked fluorescence of IDL, fluorescent microscopy; design: key: B: blue.; Br: brown.; G: green.; Go: gold.; O: orange.; P: purple.; R: red.; SB: sky blue.; V: violet.; W: white.; Y: yellow
[19] = test system: LDL (low density lipoprotein); assay: Dye-evoked fluorescence of LDL, fluorescent microscopy; design: key: B: blue.; G: green.; O: orange.; W: white.; Y: yellow
[20] = Dye-evoked fluorescence of lyso PC, fluorescent microscopy
[21] = test system: HDL (high density lipoprotein); assay: Dye-evoked fluorescence of HDL, fluorescent microscopy; design: key: B: blue.; G: green.; O: orange.; W: white.; Y: yellow
[22] = Dye-evoked fluorescence of TG, fluorescent microscopy; design: key: B: blue.; Br: brown.; G: green.; Go: gold.; O: orange.; P: purple.; R: red.; SB: sky blue.; V: violet.; W: white.; Y: yellow; conditions: exciting 360 nm, emitting 420 nm
[23] = exciting at 360 nm and emitting at 420 nm
[24] = exciting at 470 nm and emitting at 515 nm
[25] = exciting 360 nm, emitting 420 nm
[26] = exciting 470 nm, emitting 515 nm

SMILES | Dye-evoked fluorescence of the plaque [1, 23] | Dye-evoked fluorescence of the plaque [1, 24] | Dye-evoked fluorescence colour [2, 25] | Dye-evoked fluorescence colour [3, 25] | Dye-evoked fluorescence colour [4, 25] | Dye-evoked fluorescence colour [4, 26] | Dye-evoked fluorescence colour [5, 26] | Dye-evoked fluorescence colour [6, 26] | Dye-evoked fluorescence colour [7] | Dye-evoked fluorescence colour [10, 25] | Dye-evoked fluorescence colour [10, 26] | Dye-evoked fluorescence colour [14, 25] | Dye-evoked fluorescence colour [14, 26] | Dye-evoked fluorescence colour [15, 26] | Dye-evoked fluorescence colour [2, 26] | Dye-evoked fluorescence colour [16, 26] | Dye-evoked fluorescence colour [17] | Dye-evoked fluorescent image of the plaque ([8]; filters not stated) | Dye-evoked fluorescence colour [19, 26] | Dye-evoked fluorescence colour [21, 26] | other results
Cc1cc(-c2ccc(/N=N/c3ccc4c(S(=O)(=O)O)cc(S(=O)(=O)O)c(N)c4c3O)c(C)c2)ccc1/N=N/c1ccc2c(S(=O)(=O)O)cc(S(=O)(=O)O)c(N)c2c1O [Evans blue] | violet fluorescence | brown fluorescence | V | V | R | R | O | O | O | V | Br | B | Y | – | – | – | – | – | – | – | Dye-evoked fluorescent image of the plaque [8, 23]: violet fluorescence; Dye-evoked fluorescent image of the plaque [8, 24]: brown fluorescence; Dye-evoked fluorescence colour [9, 26]: R; Dye-evoked fluorescence colour [11, 26]: R; Dye-evoked fluorescence colour [12, 23]: violet fluorescence; Dye-evoked fluorescence colour [12, 24]: brown fluorescence; Dye-evoked fluorescence colour [13, 25]: B; Dye-evoked fluorescence colour [13, 26]: G
CC[n+]1c(-c2ccccc2)c2cc(N)ccc2c2ccc(N)cc21 [Homidium chloride] | red fluorescence | red fluorescence | R | P | P | – | Y | O | – | V | – | W | Y | O | R | O | O | red fluorescence | O | Y | Dye-evoked fluorescence colour [15, 25]: O; Dye-evoked fluorescence colour [18, 25]: P; Dye-evoked fluorescence colour [9, 25]: P; Dye-evoked fluorescence colour [11, 25]: P; Dye-evoked fluorescence colour [20, 23]: red fluorescence; Dye-evoked fluorescence colour [20, 24]: red fluorescence; Dye-evoked fluorescence colour [13, 25]: W; Dye-evoked fluorescence colour [13, 26]: Y
CC1=NN(c2cc(Cl)c(S(=O)(=O)[O-])cc2Cl)C(=O)C1N=Nc1ccc(S(=O)(=O)[O-])cc1.[Na+].[Na+] (stereo not shown) [Lissamine fast yellow] | – | – | Br | – | – | – | Y | – | – | – | – | – | – | – | Br | O | – | brown fluorescence | – | O | Dye-evoked fluorescence colour [5, 25]: W; Dye-evoked fluorescence colour [16, 25]: O; Dye-evoked fluorescence colour [18, 26]: R; Dye-evoked fluorescence colour [6, 25]: Y; Dye-evoked fluorescence colour [21, 25]: O
O=S(=O)([O-])c1cccc(N=Nc2ccc(Nc3ccccc3)cc2)c1.[Na+] [Metanyl yellow] | – | – | Br | Br | – | – | – | – | – | – | – | – | – | – | Br | – | Y | brown fluorescence | – | – | Dye-evoked fluorescence colour [3, 26]: R
CC[N+](CC)=c1ccc2nc3c(cc(N)c4ccccc43)oc-2c1 [Nile blue] | – | golden fluorescence | R | R | – | – | O | G | O | – | Go | – | – | Y | – | G | – | golden fluorescence | O | G | Dye-evoked fluorescence colour [15, 25]: Y; Dye-evoked fluorescence colour [19, 25]: O
Cc1cc(-c2ccc(/N=N/c3c(S(=O)(=O)[O-])cc4cc(S(=O)(=O)[O-])cc(N)c4c3O)c(C)c2)ccc1/N=N/c1c(S(=O)(=O)[O-])cc2cc(S(=O)(=O)[O-])cc(N)c2c1O.[Na+].[Na+].[Na+].[Na+] [Tripan blue] | red fluorescence | red fluorescence | R | P | P | R | O | G | – | V | – | B | G | O | R | – | O | red fluorescence | O | – | Dye-evoked fluorescence colour [22]: P; Dye-evoked fluorescence colour [9, 25]: V; Dye-evoked fluorescence colour [11, 25]: V; Dye-evoked fluorescence colour [11, 26]: R
